Reference: article PMC11758952, “A kinetic model for compound heterozygous pathogenic variants in Tyrosyl-tRNA synthetase gene YARS2-Associated neonatal phenotype” (The Journal of Biological Chemistry, 2024)
Residue numbers refer to the chain shown, from its start. Names may count otherwise. Results are given in words; binding and its absence hold for the method and conditions named. Some entries that bind do so weakly or less than the wild type. Values belong to the binder of their own block, whether it stands above or below them.

How the values were obtained:
[1] = target: human mt-TyrRS wild-type monomer as it stands in the covalently linked WT-WT heterodimer (human) (UniProt Q9Y2Z4); experiment: native gel or EMSA; native 8% PAGE of the linked enzyme (20 ug; the two monomers joined on one chain by a GGGGS x4 linker), 0.75 M Tris pH 8.8, 4 °C, 90 V for 3 h, Western blot (anti-His, anti-mt-TyrRS); migration compared with the unlinked WT/WT dimer; both purified
[2] = target: T1, human mt-TyrRS ΔE264 monomer as it stands in the covalently linked F185L-ΔE264 heterodimer (recoded copy) (human) (UniProt Q9Y2Z4); experiment: as above
T1 sequence: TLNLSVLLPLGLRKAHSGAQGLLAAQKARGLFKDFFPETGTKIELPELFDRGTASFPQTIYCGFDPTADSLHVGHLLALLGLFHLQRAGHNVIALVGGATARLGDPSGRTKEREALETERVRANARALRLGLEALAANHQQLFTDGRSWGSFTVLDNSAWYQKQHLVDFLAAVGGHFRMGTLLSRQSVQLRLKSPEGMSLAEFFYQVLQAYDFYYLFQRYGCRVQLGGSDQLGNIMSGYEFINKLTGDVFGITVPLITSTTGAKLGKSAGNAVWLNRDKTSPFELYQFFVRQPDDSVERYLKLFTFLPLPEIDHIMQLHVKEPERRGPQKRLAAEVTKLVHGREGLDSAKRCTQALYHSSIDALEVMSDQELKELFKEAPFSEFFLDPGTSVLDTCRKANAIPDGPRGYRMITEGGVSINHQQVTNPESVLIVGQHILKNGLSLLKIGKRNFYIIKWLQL

binding [1]: binds
B1: human mt-TyrRS wild-type monomer as it stands in the covalently linked WT-WT heterodimer (enzyme, UniProt Q9Y2Z4 17-477)
chain: TLNLSVLLPLGLRKAHSGAQGLLAAQKARGLFKDFFPETGTKIELPELFDRGTASFPQTIYCGFDPTADSLHVGHLLALLGLFHLQRAGHNVIALVGGATARLGDPSGRTKEREALETERVRANARALRLGLEALAANHQQLFTDGRSWGSFTVLDNSAWYQKQHLVDFLAAVGGHFRMGTLLSRQSVQLRLKSPEGMSLAEFFYQVLQAYDFYYLFQRYGCRVQLGGSDQLGNIMSGYEFINKLTGEDVFGITVPLITSTTGAKLGKSAGNAVWLNRDKTSPFELYQFFVRQPDDSVERYLKLFTFLPLPEIDHIMQLHVKEPERRGPQKRLAAEVTKLVHGREGLDSAKRCTQALYHSSIDALEVMSDQELKELFKEAPFSEFFLDPGTSVLDTCRKANAIPDGPRGYRMITEGGVSINHQQVTNPESVLIVGQHILKNGLSLLKIGKRNFYIIKWLQL

binding [2]: binds
B2: human mt-TyrRS F185L monomer as it stands in the covalently linked F185L-ΔE264 heterodimer (native-sequence copy) (enzyme, UniProt Q9Y2Z4 17-477)
chain: B1 chain with F169L
